Reference: publication PMC10958042
These are yes or no findings as the source states them, for the method shown. Some entries that bind do so weakly or less than the wild type. Where a sequence is shown, tags or fusion partners need not be part of it.

T1: Adipose triglyceride lipase (ATGL), full-length human, wild type, yeast two-hybrid fusion (human) (UniProt Q96AD5)
T1 sequence: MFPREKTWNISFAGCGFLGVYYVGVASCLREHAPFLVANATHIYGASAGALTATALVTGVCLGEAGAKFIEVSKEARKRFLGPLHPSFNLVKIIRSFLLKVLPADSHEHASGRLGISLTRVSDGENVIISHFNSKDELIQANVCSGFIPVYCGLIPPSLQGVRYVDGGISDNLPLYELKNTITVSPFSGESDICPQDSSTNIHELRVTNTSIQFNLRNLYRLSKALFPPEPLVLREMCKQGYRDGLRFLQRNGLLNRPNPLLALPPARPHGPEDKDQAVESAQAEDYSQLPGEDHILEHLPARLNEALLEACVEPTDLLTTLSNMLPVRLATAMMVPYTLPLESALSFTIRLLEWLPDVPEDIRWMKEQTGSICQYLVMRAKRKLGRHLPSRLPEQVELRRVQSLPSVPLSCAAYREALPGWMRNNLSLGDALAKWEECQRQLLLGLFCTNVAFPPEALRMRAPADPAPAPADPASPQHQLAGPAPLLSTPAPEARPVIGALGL

T2: Adipose triglyceride lipase (ATGL), full-length human, wild type, yeast two-hybrid fusion (human), Q96AD5
T2 chain: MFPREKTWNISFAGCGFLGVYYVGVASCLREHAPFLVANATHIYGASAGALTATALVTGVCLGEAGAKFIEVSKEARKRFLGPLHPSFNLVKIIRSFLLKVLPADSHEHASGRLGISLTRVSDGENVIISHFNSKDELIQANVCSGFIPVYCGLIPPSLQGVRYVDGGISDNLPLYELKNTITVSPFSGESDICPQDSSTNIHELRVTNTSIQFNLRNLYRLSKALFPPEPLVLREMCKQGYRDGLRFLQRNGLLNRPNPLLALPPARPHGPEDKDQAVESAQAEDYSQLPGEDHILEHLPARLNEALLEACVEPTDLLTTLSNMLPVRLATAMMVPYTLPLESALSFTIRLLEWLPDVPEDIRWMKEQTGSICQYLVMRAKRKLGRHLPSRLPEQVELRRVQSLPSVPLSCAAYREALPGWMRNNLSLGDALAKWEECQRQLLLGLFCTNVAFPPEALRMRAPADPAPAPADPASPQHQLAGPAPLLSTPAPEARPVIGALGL

B1: CIDEC (cell death-inducing DFFA-like effector c), wild type, yeast two-hybrid fusion (protein, UniProt Q96AQ7 1-238)
chain: MEYAMKSLSLLYPKSLSRHVSVRTSVVTQQLLSEPSPKAPRARPCRVSTADRSVRKGIMAYSLEDLLLKVRDTLMLADKPFFLVLEEDGTTVETEEYFQALAGDTVFMVLQKGQKWQPPSEQGTRHPLSLSHKPAKKIDVARVTFDLYKLNPQDFIGCLNVKATFYDTYSLSYDLHCCGAKRIMKEAFRWALFSMQATGHVLLGTSCYLQQLLDATEEGQPPKGKASSLIPTCLKILQ
B2: G0S2 (G0/G1 switch gene 2), wild type, yeast two-hybrid fusion (protein, UniProt P27469 1-103)
chain: METVQELIPLAKEMMAQKRKGKMVKLYVLGSVLALFGVVLGLMETVCSPFTAARRLRDQEAAVAELQAALERQALQKQALQEKGKQQDTVLGGRALSNRQHAS
B3: CGI-58, wild type, yeast two-hybrid fusion, Q8WTS1 1-349 (protein)
chain: MAAEEEEVDSADTGERSGWLTGWLPTWCPTSISHLKEAEEKMLKCVPCTYKKEPVRISNGNKIWTLKFSHNISNKTPLVLLHGFGGGLGLWALNFGDLCTNRPVYAFDLLGFGRSSRPRFDSDAEEVENQFVESIEEWRCALGLDKMILLGHNLGGFLAAAYSLKYPSRVNHLILVEPWGFPERPDLADQDRPIPVWIRALGAALTPFNPLAGLRIAGPFGLSLVQRLRPDFKRKYSSMFEDDTVTEYIYHCNVQTPSGETAFKNMTIPYGWAKRPMLQRIGKMHPDIPVSVIFGARSCIDGNSGTSIQSLRPHSYVKTIAILGAGHYVYADQPEEFNQKVKEICDTVD

Key:
[1] = target: T1, Adipose triglyceride lipase (ATGL), full-length human, wild type, yeast two-hybrid fusion (human); assay: two-hybrid; Y2H assay system, wild-type full-length human ATGL against wild-type partners
[2] = target: T2, Adipose triglyceride lipase (ATGL), …; assay: as above; conditions: remark: other sources report otherwise

Binder | binding [1] | binding [2]
B1 | binds | –
B2 | binds | –
B3 | – | binds
